{"source": "patent US20160031999A1", "key": {"[1]": {"target": "T1, K66R mutant of soluble human IL-11Rα (SEQ ID NO: 96) (human) (UniProt Q14626)", "T1 sequence": "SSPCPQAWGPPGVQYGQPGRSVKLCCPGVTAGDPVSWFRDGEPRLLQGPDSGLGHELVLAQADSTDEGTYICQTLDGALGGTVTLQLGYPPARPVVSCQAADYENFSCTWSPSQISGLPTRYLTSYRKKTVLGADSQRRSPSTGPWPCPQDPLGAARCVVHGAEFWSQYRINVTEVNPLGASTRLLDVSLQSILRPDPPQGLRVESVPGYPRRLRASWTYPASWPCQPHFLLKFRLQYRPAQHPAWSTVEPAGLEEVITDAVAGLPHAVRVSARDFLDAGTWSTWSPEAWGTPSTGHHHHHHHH", "test": "Biacore"}, "[2]": {"target": "T2, V117E mutant of soluble human IL-11Rα (SEQ ID NO: 95) (human) (UniProt Q14626)", "T2 sequence": "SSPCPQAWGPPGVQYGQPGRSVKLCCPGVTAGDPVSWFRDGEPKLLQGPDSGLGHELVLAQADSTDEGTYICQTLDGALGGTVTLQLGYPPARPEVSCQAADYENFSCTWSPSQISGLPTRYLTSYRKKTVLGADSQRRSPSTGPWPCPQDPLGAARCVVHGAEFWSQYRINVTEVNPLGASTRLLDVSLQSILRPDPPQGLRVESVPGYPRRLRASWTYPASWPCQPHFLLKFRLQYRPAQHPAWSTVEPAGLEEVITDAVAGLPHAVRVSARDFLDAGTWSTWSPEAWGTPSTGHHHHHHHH", "test": "Biacore"}, "[3]": {"target": "T3, mouse IL-11Rα on transfected cells (mouse) (UniProt P70225)", "T3 sequence": "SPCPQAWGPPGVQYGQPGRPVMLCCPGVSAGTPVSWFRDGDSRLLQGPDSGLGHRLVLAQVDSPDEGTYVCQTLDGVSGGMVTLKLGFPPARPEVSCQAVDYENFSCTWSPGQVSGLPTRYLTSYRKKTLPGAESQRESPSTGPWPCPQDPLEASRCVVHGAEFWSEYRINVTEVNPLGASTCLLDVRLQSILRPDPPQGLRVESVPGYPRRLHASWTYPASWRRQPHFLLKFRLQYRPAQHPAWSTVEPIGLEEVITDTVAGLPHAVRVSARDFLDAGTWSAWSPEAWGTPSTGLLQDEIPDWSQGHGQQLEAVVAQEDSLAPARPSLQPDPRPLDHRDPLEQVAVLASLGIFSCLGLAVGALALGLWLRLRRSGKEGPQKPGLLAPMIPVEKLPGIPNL", "test": "binding to transfected cells"}, "[4]": {"target": "human IL-11Rα (form used in the assay not stated) (human) (UniProt Q14626)", "test": "Biacore (Table 3)"}}, "note": "No constants are given. Whether binding was seen depends on the method and setting. Some results given as binding are weak or reduced against the parent protein; the word gives no strength."}
{"binder": "antibody 8E4 (antibody, human IgG4 S228P, lambda, V domains shown) VH: EVQLLESGGGLVQPGGSLRLSCAASGFTFSWYFMGWVRQAPGKGLEWVSYIYPSGGSTGYADSVKGRFTISRDNSKNTLYLQMHSLRAEDTAVYYCARDEGYCSSTSCYFDAFDIWGQGTMVTVSS VL: QSALTQPPSASGSPGQSVAISCTGTSSDVGGYNFVSWYQQHPGKAPKLLIYEVTKRPSGVPDRFSGSKAGNTASLTVSGLQAEDEADYYCSSYGGSNNAGVFGTGTKVTVLG", "values": [{"measurement": "binding", "setting": "[1]", "value": "binds"}, {"measurement": "binding", "setting": "[2]", "value": "binds"}, {"measurement": "binding", "setting": "[3]", "value": "binds"}]}
{"binder": "hu8E2-TS-306 (antibody, V domains shown) VH: EVQLLESGGGLVQPGGSLRLSCAASGFTFSWYSMTWVRQAPGKGLEWVSSIVPSGGHTQYADSVKGRFTISRDNSKNTLYLQMNSLRAEDTAVYYCAKGPGWGSFDLWGRGTLVTVSS VL: DIQMTQSPSSLSASVGDRVTITCQASQDVDKYVEWYQQKPGKAPKLLIYDASNLQTGVPSRFSGSGSGTDFTFTISSLQPEDIATYYCQQYDNLSPTFGPGTKVDIK", "values": [{"measurement": "binding", "setting": "[4]", "value": "binds"}]}
{"binder": "hu8E2-TS-2 (antibody, V domains shown) VH: EVQLLESGGGLVQPGGSLRLSCAASGFTFSWYSMTWVRQAPGKGLEWVSSIVPSGGHTQYADSVKGRFTISRDNSKNTLYLQMNSLRAEDTAVYYCAKGPGWGSFDLWGRGTLVTVSS VL: DIQMTQSPSSLSASVGDRVTITCQASQDINNYLNWYQQKPGKAPKLLIYDASNLQTGVPSRFSGSGSGTDFTFTISSLQPEDIATYYCQQAEDQSPTFGPGTKVDIK", "values": [{"measurement": "binding", "setting": "[4]", "value": "binds"}]}
{"binder": "hu8E2-TS-4 (antibody, V domains shown) VH: EVQLLESGGGLVQPGGSLRLSCAASGFTFSWYSMTWVRQAPGKGLEWVSSIVPSGGHTQYADSVKGRFTISRDNSKNTLYLQMNSLRAEDTAVYYCAKGPGWGSFDLWGRGTLVTVSS VL: DIQMTQSPSSLSASVGDRVTITCQASQDINNYLNWYQQKPGKAPKLLIYDASNLQTGVPSRFSGSGSGTDFTFTISSLQPEDIATYYCQQHEFQSPTFGPGTKVDIK", "values": [{"measurement": "binding", "setting": "[4]", "value": "binds"}]}
{"binder": "hu8E2-TS-7 (antibody, V domains shown) VH: EVQLLESGGGLVQPGGSLRLSCAASGFTFSWYSMTWVRQAPGKGLEWVSSIVPSGGHTQYADSVKGRFTISRDNSKNTLYLQMNSLRAEDTAVYYCAKGPGWGSFDLWGRGTLVTVSS VL: DIQMTQSPSSLSASVGDRVTITCQASQDINNYLNWYQQKPGKAPKLLIYDASNLQTGVPSRFSGSGSGTDFTFTISSLQPEDIATYYCQQHENQSPTFGPGTKVDIK", "values": [{"measurement": "binding", "setting": "[4]", "value": "binds"}]}
{"binder": "hu8E2-TS-51 (antibody, V domains shown) VH: EVQLLESGGGLVQPGGSLRLSCAASGFTFSWYSMTWVRQAPGKGLEWVSSIVPSGGHTQYADSVKGRFTISRDNSKNTLYLQMNSLRAEDTAVYYCAKGPGWGSFDLWGRGTLVTVSS VL: DIQMTQSPSSLSASVGDRVTITCQASQDINNYLNWYQQKPGKAPKLLIYDASNLQTGVPSRFSGSGSGTDFTFTISSLQPEDIATYYCQQYESQWPFFGPGTKVDIK", "values": [{"measurement": "binding", "setting": "[4]", "value": "binds"}]}
